Reference: paper doi:10.1101/2021.09.09.459689
No constants are given. Whether binding was seen depends on the method and setting.

Target: NANOG, Q9H9S0
Experiment: SPR
Conditions: remark: other sources report otherwise

B1: focal adhesion kinase (FAK), Q05397 1-1052 (enzyme)
chain: MAAAYLDPNLNHTPNSSTKTHLGTGMERSPGAMERVLKVFHYFESNSEPTTWASIIRHGDATDVRGIIQKIVDSHKVKHVACYGFRLSHLRSEEVHWLHVDMGVSSVREKYELAHPPEEWKYELRIRYLPKGFLNQFTEDKPTLNFFYQQVKSDYMLEIADQVDQEIALKLGCLEIRRSYWEMRGNALEKKSNYEVLEKDVGLKRFFPKSLLDSVKAKTLRKLIQQTFRQFANLNREESILKFFEILSPVYRFDKECFKCALGSSWIISVELAIGPEEGISYLTDKGCNPTHLADFTQVQTIQYSNSEDKDRKGMLQLKIAGAPEPLTVTAPSLTIAENMADLIDGYCRLVNGTSQSFIIRPQKEGERALPSIPKLANSEKQGMRTHAVSVSETDDYAEIIDEEDTYTMPSTRDYEIQRERIELGRCIGEGQFGDVHQGIYMSPENPALAVAIKTCKNCTSDSVREKFLQEALTMRQFDHPHIVKLIGVITENPVWIIMELCTLGELRSFLQVRKYSLDLASLILYAYQLSTALAYLESKRFVHRDIAARNVLVSSNDCVKLGDFGLSRYMEDSTYYKASKGKLPIKWMAPESINFRRFTSASDVWMFGVCMWEILMHGVKPFQGVKNNDVIGRIENGERLPMPPNCPPTLYSLMTKCWAYDPSRRPRFTELKAQLSTILEEEKAQQEERMRMESRRQATVSWDSGGSDEAPPKPSRPGYPSPRSSEGFYPSPQHMVQTNHYQVSGYPGSHGITAMAGSIYPGQASLLDQTDSWNHRPQEIAMWQPNVEDSTVLDLRGIGQVLPTHLMEERLIRQQQEMEEDQRWLEKEERFLKPDVRLSRGSIDREDGSLQGPIGNQHIYQPVGKPDPAAPPKKPPRPGAPGHLGSLASLSSPADSYNEGVKLQPQEISPPPTANLDRSNDKVYENVTGLVKAVIEMSSKIQPAPPEEYVPMVKEVGLALRTLLATVDETIPLLPASTHREIEMAQKLLNSDLGELINKMKLAQQYVMTSLQQEYKKQMLTAAHALAVDAKNLLDVIDQARLKMLGQTRPH
Question: B1 was tested. Which binding did it give?
Answer: Its binding is “no binding”.
